The supplement of paper PMC10849652
This is one part of the list.

Protein sequences, listed by entry. Tags and fused reporters are not part of them. Lines headed by an entry give the natural chain unless they say otherwise; changes in a name come on top.
UniProt Q9Y5K3: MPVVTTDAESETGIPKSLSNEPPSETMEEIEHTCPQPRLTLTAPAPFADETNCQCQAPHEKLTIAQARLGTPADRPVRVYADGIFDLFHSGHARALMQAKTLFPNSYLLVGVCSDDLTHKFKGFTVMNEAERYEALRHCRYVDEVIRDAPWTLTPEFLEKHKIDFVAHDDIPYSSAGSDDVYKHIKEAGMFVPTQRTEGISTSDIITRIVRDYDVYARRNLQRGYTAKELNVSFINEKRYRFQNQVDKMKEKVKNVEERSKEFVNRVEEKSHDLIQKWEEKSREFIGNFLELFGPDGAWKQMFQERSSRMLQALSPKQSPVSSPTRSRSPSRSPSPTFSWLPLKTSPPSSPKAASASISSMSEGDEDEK
UniProt O14737: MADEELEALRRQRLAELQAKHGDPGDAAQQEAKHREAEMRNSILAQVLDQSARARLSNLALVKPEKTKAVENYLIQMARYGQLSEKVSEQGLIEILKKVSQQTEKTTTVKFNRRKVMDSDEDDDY
UniProt Q9HBI1: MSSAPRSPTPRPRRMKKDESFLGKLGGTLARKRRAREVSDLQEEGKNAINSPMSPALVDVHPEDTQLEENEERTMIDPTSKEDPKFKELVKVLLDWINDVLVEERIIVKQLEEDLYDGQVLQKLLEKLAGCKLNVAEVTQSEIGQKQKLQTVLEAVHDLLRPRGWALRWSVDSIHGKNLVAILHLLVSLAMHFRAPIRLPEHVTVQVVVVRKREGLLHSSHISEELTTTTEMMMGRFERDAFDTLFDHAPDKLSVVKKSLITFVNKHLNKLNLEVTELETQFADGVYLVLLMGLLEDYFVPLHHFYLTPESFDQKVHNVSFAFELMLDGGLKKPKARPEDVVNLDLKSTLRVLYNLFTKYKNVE
UniProt Q8NCN5: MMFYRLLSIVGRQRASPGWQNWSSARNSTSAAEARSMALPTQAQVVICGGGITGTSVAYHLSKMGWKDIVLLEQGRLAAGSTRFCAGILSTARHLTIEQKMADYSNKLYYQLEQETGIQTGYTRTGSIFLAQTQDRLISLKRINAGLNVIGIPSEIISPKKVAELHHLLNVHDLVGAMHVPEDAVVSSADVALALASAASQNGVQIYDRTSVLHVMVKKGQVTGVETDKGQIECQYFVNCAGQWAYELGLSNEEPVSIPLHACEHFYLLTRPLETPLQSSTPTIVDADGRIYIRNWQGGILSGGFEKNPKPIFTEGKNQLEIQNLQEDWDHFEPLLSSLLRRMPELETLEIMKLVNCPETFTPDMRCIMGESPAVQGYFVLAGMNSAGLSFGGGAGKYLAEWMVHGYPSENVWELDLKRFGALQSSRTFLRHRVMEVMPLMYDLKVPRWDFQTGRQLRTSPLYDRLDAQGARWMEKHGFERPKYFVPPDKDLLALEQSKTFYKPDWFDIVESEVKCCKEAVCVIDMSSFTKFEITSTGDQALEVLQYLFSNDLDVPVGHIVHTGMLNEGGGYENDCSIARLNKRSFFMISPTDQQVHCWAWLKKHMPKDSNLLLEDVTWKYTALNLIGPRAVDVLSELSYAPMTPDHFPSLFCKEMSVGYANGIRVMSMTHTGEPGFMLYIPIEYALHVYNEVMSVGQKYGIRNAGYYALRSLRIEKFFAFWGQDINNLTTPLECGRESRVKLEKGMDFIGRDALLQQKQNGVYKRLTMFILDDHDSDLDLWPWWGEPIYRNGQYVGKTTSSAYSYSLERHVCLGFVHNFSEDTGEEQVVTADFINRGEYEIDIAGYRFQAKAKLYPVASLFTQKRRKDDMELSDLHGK
UniProt Q9BRP1: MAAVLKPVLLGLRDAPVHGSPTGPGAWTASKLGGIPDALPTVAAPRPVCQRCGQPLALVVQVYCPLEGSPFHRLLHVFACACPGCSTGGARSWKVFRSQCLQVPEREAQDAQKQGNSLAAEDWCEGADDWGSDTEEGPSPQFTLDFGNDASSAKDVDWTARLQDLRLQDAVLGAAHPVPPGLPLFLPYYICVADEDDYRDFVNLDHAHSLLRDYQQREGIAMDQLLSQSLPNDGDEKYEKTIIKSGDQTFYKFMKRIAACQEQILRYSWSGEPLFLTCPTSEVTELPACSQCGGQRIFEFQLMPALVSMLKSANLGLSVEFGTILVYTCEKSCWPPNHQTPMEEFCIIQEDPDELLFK
UniProt Q16342: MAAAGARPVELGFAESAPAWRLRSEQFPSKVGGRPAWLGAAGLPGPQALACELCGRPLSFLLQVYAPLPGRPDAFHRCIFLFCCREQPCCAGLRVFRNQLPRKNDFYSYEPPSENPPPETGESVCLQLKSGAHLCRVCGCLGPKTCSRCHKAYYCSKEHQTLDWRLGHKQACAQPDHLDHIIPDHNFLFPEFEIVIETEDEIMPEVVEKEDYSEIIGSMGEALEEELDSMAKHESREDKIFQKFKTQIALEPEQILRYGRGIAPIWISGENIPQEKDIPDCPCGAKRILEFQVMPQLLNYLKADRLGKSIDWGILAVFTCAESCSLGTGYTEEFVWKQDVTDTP
UniProt Q96GD0: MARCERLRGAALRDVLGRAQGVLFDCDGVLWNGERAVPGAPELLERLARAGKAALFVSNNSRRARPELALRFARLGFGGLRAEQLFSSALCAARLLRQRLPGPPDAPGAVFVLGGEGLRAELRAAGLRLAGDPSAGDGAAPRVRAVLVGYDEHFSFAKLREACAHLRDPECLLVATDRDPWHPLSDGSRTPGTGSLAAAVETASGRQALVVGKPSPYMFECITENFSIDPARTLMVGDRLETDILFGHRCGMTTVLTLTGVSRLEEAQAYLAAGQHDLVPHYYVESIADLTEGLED
UniProt Q5EBL8: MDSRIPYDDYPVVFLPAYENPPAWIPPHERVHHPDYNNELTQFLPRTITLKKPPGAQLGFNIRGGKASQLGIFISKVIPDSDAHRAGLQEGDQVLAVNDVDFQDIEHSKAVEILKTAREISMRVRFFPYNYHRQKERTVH
UniProt P0DJ07: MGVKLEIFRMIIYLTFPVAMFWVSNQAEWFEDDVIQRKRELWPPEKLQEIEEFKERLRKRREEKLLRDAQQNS
UniProt Q9NUG6, whole entry, looked up: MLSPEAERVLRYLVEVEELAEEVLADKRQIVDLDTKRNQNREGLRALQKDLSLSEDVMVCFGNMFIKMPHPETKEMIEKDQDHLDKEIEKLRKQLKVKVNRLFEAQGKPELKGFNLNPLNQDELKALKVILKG
UniProt P17858: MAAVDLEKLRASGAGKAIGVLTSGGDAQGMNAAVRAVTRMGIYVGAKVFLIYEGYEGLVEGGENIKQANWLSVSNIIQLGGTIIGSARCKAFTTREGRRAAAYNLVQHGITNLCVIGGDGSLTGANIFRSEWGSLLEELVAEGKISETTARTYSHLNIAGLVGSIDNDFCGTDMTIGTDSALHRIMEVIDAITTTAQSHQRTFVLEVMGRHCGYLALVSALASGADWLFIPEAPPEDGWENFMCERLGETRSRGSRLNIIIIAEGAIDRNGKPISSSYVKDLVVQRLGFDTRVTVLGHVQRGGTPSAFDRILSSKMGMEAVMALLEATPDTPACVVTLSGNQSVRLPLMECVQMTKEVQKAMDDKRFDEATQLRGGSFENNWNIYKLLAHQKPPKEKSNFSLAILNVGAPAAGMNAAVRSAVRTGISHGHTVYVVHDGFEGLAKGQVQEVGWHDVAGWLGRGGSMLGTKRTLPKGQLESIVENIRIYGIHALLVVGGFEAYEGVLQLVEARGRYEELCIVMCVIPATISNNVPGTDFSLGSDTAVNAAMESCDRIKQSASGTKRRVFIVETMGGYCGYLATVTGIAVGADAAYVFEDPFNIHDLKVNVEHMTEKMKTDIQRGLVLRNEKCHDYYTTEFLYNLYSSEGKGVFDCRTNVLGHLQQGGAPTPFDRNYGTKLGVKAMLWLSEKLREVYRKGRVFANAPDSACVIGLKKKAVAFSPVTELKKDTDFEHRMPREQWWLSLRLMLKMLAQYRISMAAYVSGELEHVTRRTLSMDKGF
UniProt Q53EL6: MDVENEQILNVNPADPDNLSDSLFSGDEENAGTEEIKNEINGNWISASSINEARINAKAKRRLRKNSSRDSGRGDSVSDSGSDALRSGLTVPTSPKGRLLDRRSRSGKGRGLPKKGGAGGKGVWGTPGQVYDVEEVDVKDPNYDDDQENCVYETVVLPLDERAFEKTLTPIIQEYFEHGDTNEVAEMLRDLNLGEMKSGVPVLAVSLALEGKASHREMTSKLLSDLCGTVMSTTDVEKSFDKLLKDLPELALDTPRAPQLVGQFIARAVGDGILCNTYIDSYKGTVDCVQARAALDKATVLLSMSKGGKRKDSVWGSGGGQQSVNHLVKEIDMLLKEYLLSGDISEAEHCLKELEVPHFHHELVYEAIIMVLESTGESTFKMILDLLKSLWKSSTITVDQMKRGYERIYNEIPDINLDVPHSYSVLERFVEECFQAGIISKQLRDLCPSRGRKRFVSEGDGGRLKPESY
UniProt Q86TB9: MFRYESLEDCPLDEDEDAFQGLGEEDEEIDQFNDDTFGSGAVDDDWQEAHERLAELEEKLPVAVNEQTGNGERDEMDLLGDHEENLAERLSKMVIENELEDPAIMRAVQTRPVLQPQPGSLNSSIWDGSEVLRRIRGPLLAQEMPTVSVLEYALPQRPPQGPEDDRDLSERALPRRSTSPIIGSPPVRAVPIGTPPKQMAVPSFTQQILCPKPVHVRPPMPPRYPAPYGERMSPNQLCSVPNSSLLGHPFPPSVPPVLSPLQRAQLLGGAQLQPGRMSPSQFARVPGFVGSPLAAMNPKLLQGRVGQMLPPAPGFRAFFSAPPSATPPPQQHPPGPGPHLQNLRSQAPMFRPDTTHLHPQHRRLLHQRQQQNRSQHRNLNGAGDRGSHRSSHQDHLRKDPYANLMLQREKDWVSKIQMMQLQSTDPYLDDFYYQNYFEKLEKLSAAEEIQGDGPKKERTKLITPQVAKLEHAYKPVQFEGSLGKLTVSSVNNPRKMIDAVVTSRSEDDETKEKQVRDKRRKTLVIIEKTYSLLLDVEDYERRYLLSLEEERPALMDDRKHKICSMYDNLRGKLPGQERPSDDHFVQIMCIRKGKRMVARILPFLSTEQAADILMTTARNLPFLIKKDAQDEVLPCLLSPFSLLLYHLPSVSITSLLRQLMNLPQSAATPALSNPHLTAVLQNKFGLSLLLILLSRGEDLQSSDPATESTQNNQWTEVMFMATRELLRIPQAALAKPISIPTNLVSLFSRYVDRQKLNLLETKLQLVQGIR
UniProt Q8N0Y7: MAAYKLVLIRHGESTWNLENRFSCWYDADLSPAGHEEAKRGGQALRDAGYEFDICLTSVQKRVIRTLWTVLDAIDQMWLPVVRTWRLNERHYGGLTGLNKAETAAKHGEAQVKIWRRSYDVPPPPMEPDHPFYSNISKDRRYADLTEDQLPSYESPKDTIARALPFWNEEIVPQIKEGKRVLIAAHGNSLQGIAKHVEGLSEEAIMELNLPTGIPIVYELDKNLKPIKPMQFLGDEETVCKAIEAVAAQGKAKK
UniProt O60825: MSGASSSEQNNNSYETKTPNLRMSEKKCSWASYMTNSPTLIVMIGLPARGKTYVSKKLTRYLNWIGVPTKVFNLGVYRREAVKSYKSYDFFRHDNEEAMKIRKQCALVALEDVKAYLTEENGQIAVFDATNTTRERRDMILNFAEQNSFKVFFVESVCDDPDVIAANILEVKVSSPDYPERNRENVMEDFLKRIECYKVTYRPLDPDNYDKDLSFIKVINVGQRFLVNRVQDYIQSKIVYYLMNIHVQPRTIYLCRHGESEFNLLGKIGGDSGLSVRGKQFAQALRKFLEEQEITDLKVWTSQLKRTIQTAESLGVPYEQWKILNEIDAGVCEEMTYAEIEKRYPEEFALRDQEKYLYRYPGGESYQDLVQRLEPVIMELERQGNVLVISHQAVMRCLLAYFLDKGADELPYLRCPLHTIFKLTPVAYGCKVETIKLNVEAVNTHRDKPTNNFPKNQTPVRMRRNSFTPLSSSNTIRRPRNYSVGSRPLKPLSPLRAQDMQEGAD
UniProt Q13442: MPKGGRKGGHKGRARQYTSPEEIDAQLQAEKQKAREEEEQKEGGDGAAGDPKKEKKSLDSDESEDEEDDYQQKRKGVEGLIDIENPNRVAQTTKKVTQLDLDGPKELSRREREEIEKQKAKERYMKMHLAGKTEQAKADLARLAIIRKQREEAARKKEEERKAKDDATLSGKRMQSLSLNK
UniProt P05166: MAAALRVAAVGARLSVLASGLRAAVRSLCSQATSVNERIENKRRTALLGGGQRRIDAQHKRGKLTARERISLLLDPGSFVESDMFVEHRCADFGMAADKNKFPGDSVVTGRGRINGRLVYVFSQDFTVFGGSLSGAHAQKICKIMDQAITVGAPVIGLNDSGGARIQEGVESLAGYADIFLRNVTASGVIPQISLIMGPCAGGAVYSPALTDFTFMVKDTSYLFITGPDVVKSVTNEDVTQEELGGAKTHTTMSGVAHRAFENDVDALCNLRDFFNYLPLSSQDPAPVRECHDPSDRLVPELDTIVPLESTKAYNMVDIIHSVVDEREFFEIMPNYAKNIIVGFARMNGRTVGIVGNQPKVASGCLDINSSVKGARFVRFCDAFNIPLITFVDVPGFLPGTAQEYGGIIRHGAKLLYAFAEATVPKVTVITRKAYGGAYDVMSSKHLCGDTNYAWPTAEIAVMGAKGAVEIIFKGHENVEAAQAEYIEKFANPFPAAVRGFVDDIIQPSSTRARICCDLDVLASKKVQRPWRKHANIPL

Experiments:
Experiment in all cases: log2 fold change, soluble protein after heating vs DMSO (PISA); higher = thermal stabilisation; K562 lysate, 10 uM; active = over 0.2 and 3.5 SD of the protein, either way, in both replicates (recomputed)
lapatinib = compound: CS(=O)(=O)CCNCc1ccc(-c2ccc3ncnc(Nc4ccc(OCc5cccc(F)c5)c(Cl)c4)c3c2)o1 [lapatinib]
In short: (§1)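 Following dounce homogenisation of K562 pellets in PBS pH 7.4 with 1 mM MgCl2, crude extract at 1 mg/mL protein was incubated for 30 min with 10 μM compound. Aliquots were then heated for 3 min over 48°C-58°C and pooled, NP-40 was added to 0.5% at 4°C, and soluble protein was recovered as the supernatant at 21,000xg for 90 min. Channel-sum-equalised TMTpro 16plex LC-MS/MS quantified this protein. Each value, from duplicates, is a log-two fold change in thermal stability relative to solvent controls.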

pictilisib = compound: CS(=O)(=O)N1CCN(Cc2cc3nc(-c4cccc5[nH]ncc45)nc(N4CCOCC4)c3s2)CC1 [pictilisib]
In short: as §1

crizotinib = compound: C[C@@H](Oc1cc(-c2cnn(C3CCNCC3)c2)cnc1N)c1c(Cl)ccc(F)c1Cl [crizotinib]
In short: as §1

[1] = compound: C[C@H](C1=CC=C(C=C1)C(=O)NC2=C3C=CNC3=NC=C2)N
In short: as §1

duvelisib = compound: C[C@H](Nc1ncnc2nc[nH]c12)c1cc2cccc(Cl)c2c(=O)n1-c1ccccc1 [duvelisib]
In short: as §1

gandotinib = compound: Cc1cc(Nc2cc(CN3CCOCC3)c3nc(C)c(Cc4ccc(Cl)cc4F)n3n2)n[nH]1 [gandotinib]
In short: as §1

tozasertib = compound: Cc1cc(Nc2cc(N3CCN(C)CC3)nc(Sc3ccc(NC(=O)C4CC4)cc3)n2)n[nH]1 [tozasertib]
In short: as §1

doramapimod = compound: Cc1ccc(-n2nc(C(C)(C)C)cc2NC(=O)Nc2ccc(OCCN3CCOCC3)c3ccccc23)cc1 [doramapimod]
In short: as §1

bafetinib = compound: Cc1ccc(NC(=O)c2ccc(CN3CC[C@H](N(C)C)C3)c(C(F)(F)F)c2)cc1Nc1nccc(-c2cncnc2)n1 [bafetinib]
In short: as §1

[2] = compound: Cc1cccc(CC(=O)N2CCc3c2ccc(-c2cn(C)c4ncnc(N)c24)c3F)n1
In short: as §1

Target	log2 fold change (lapatinib)	log2 fold change (pictilisib)	log2 fold change (crizotinib)	log2 fold change [1]	log2 fold change (duvelisib)	log2 fold change (gandotinib)	log2 fold change (tozasertib)	log2 fold change (doramapimod)	log2 fold change (bafetinib)	log2 fold change [2]
PDIA6 isoform 2 (UniProt Q15084)	inactive: -0.009	inactive: 0.033	inactive: 0.001	inactive: 0.054	inactive: 0.024	inactive: -0.016	inactive: 0.02	inactive: -0.017	inactive: 0.045	inactive: -0.012
PARN (UniProt O95453)	inactive: -0.006	inactive: -0.021	inactive: -0.001	inactive: 0.043	inactive: 0.016	inactive: -0.018	inactive: 0.045	inactive: -0.004	inactive: -0.056	inactive: -0.013
PEPD (UniProt P12955)	inactive: -0.004	inactive: -0.051	inactive: -0.005	inactive: -0.024	inactive: -0.044	inactive: 0.032	inactive: -0.006	inactive: 0.001	inactive: -0.007	inactive: -0.005
PCYT1B (UniProt Q9Y5K3)	inactive: 0.008	inactive: 0.004	inactive: 0.025	inactive: -0.044	inactive: -0.007	inactive: 0.193	inactive: 0.008	inactive: -0.003	inactive: -0.127	active: 0.239
PDCD5 (UniProt O14737)	inactive: 0.009	inactive: -0.034	inactive: 0.043	inactive: -0.141	inactive: -0.009	inactive: 0.078	inactive: 0.042	inactive: -0.014	inactive: -0.009	inactive: 0.03
PDS5B (UniProt Q9NTI5)	inactive: -0.02	inactive: 0.007	inactive: -0.011	inactive: -0.04	inactive: -0.003	inactive: -0.119	inactive: -0.003	inactive: -0.011	inactive: -0.076	inactive: 0.033
PCMT1 isoform 2 (UniProt P22061)	inactive: 0.006	inactive: 0.001	inactive: 0.074	inactive: 0.087	inactive: -0.016	inactive: -0.06	inactive: 0.033	inactive: -0.029	inactive: 0.013	inactive: -0.079
PARVB (UniProt Q9HBI1)	inactive: -0.034	inactive: -0.03	inactive: -0.031	inactive: -0.026	inactive: -0.03	inactive: -0.055	inactive: 0.026	inactive: -0.025	inactive: -0.043	inactive: -0.011
PDPR (UniProt Q8NCN5)	inactive: -0.021	inactive: -0.026	inactive: -0.011	inactive: -0.028	inactive: 0.011	inactive: 0.012	inactive: 0.02	inactive: 0.014	inactive: 0.01	inactive: 0.037
PDIA4 (UniProt P13667)	inactive: -0.018	inactive: 0.006	inactive: 0.09	inactive: 0.029	inactive: -0.011	inactive: -0.026	inactive: 0	inactive: -0.057	inactive: 0.014	inactive: -0.045
PDCD2L (UniProt Q9BRP1)	inactive: 0	inactive: 0.001	inactive: -0.056	inactive: -0.088	inactive: 0.028	inactive: 0.011	inactive: -0.005	inactive: 0.008	inactive: -0.05	inactive: 0.04
PDCD2 (UniProt Q16342)	inactive: -0.015	inactive: -0.034	inactive: -0.02	inactive: -0.027	inactive: -0.041	inactive: -0.03	inactive: 0.021	inactive: 0.032	inactive: -0.059	inactive: 0.072
PDXP (UniProt Q96GD0)	inactive: -0.024	inactive: -0.025	inactive: -0.029	inactive: -0.05	inactive: -0.01	inactive: 0.025	inactive: 0.007	inactive: 0.074	inactive: 0.002	inactive: 0
PDZD11 isoform 2 (UniProt Q5EBL8)	inactive: -0.01	inactive: -0.068	inactive: -0.038	inactive: 0.028	inactive: -0.02	inactive: 0.043	inactive: 0.069	inactive: 0.03	inactive: 0.044	inactive: -0.06
PCGF2 (UniProt P35227)	inactive: 0.101	inactive: -0.015	inactive: -0.003	inactive: 0.029	inactive: -0.055	inactive: -0.093	inactive: 0.012	inactive: 0.046	inactive: -0.014	inactive: -0.014
PDE2A (UniProt O00408)	inactive: 0.005	inactive: 0	inactive: 0.074	inactive: 0.05	inactive: -0.042	inactive: 0.138	inactive: 0.049	inactive: -0.057	inactive: 0.051	inactive: 0.041
PET100 (UniProt P0DJ07)	inactive: 0	inactive: -0.047	inactive: 0.092	inactive: 0.16	inactive: -0.056	inactive: -0.195	inactive: 0.007	inactive: -0.048	inactive: 0.022	inactive: -0.187
PELO (UniProt Q9BRX2)	inactive: 0.036	inactive: 0.001	inactive: -0.064	active: 0.369	inactive: -0.039	inactive: -0.202	inactive: 0.022	inactive: 0.019	inactive: -0.054	inactive: -0.175
PDRG1 (UniProt Q9NUG6)	inactive: 0.001	inactive: -0.033	inactive: -0.015	inactive: -0.063	inactive: 0.002	inactive: 0.044	inactive: -0.03	inactive: 0.03	inactive: 0.019	inactive: 0.035
PFKL isoform 2 (UniProt P17858)	inactive: -0.012	inactive: -0.015	inactive: -0.062	inactive: -0.029	inactive: -0.1	inactive: 0.022	inactive: 0.011	inactive: -0.006	inactive: -0.032	inactive: 0.018
PDCD4 (UniProt Q53EL6)	inactive: -0.026	inactive: -0.003	inactive: -0.055	inactive: -0.051	inactive: -0.022	inactive: 0.009	inactive: -0.002	inactive: 0.011	inactive: -0.038	inactive: 0.062
PGD (UniProt P52209)	inactive: 0.007	inactive: 0.008	inactive: 0.005	inactive: 0.051	inactive: -0.007	inactive: -0.056	inactive: 0.026	inactive: 0.007	inactive: 0.05	inactive: -0.057
PFKFB3 isoform 4 (UniProt Q16875)	inactive: -0.228	inactive: -0.057	inactive: -0.021	inactive: 0.004	inactive: -0.009	inactive: -0.006	inactive: -0.003	inactive: 0.007	inactive: -0.03	inactive: 0.007
PATL1 (UniProt Q86TB9)	inactive: 0.058	inactive: 0.051	inactive: -0.016	inactive: -0.034	inactive: 0.024	inactive: -0.043	inactive: 0.012	inactive: -0.035	inactive: -0.02	inactive: -0.005
PCYOX1L (UniProt Q8NBM8)	inactive: -0.052	inactive: 0.013	inactive: 0.047	inactive: 0.002	inactive: -0.043	inactive: 0.027	inactive: -0.019	inactive: 0.003	inactive: -0.052	inactive: 0.008
PGAM4 (UniProt Q8N0Y7)	inactive: -0.004	inactive: 0.034	inactive: 0.003	inactive: -0.002	inactive: 0.001	inactive: 0.008	inactive: -0.003	inactive: -0.039	inactive: 0.023	inactive: -0.028
PDXK (UniProt O00764)	inactive: -0.026	inactive: 0.014	inactive: 0.004	inactive: -0.134	inactive: 0.041	inactive: 0.109	inactive: -0.014	inactive: -0.072	inactive: 0.046	inactive: 0.083
PFKFB2 (UniProt O60825)	inactive: 0.006	inactive: 0.001	inactive: 0.017	inactive: -0.016	inactive: -0.015	inactive: -0.035	inactive: 0.038	inactive: -0.018	inactive: -0.07	inactive: 0.01
PDAP1 (UniProt Q13442)	inactive: -0.004	inactive: 0.03	inactive: 0.043	active: -0.232	inactive: -0.043	inactive: 0.135	inactive: -0.026	inactive: -0.03	inactive: 0.006	inactive: 0.089
PCCB (UniProt P05166)	inactive: -0.021	inactive: -0.028	inactive: 0.007	inactive: -0.043	inactive: -0.021	inactive: 0.026	inactive: -0.013	inactive: -0.008	inactive: -0.017	inactive: 0.008

Full records from above. Values in the order: log2 fold change (lapatinib)	log2 fold change (pictilisib)	log2 fold change (crizotinib)	log2 fold change [1]	log2 fold change (duvelisib)	log2 fold change (gandotinib)	log2 fold change (tozasertib)	log2 fold change (doramapimod)	log2 fold change (bafetinib)	log2 fold change [2]
PCMT1 isoform 2 (UniProt P22061) in the list: inactive: 0.006	inactive: 0.001	inactive: 0.074	inactive: 0.087	inactive: -0.016	inactive: -0.06	inactive: 0.033	inactive: -0.029	inactive: 0.013	inactive: -0.079
PFKFB3 isoform 4 (UniProt Q16875) in the list: inactive: -0.228	inactive: -0.057	inactive: -0.021	inactive: 0.004	inactive: -0.009	inactive: -0.006	inactive: -0.003	inactive: 0.007	inactive: -0.03	inactive: 0.007
